Assay [1] has as its target HNF4. Kind of assay: ELISA; plates coated overnight at 4°C with 2 µg/ml recombinant protein; blocked with PBS + 2.5% skim milk; 0-8 µM biotinylated NKp44-derived peptides, 2 h at room temperature; streptavidin-HRP; both purified.
In assay [2] the target is TL1A (UniProt O95150). The description is as above.

The chains behind the UniProt entries cited, without tags or fusion partners. Where a name states a change or a piece, a line headed by the entry shows the natural chain unless it says otherwise.
UniProt O95150: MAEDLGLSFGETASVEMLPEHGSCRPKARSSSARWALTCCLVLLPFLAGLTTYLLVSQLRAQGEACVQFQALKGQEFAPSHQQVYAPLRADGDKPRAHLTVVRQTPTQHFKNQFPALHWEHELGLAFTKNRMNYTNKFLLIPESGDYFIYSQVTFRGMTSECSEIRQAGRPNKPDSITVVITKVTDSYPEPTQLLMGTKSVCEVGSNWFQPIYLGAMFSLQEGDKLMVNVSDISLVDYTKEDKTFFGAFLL

Results are given in words; binding and its absence hold for the method and conditions named.

B1: biotinylated NKp44-derived peptide #8 (peptide)
peptide: EASALVCIRLVTSSKPRTVA
modifications: biotin (N-terminal)
Turning to B1, the binding entry in assay [1] and in assay [2] was “no binding (tested: 5 µg/ml)” in each case.

The values are drawn from article PMC5974751, “NKp44-Derived Peptide Binds Proliferating Cell Nuclear Antigen and Mediates Tumor Cell Death” (Frontiers in Immunology, 2018).
